Experimental data reported in patent US6472227B1, “Barbiturate assay, tracers, immunogens, antibodies and kit” (Abbott Laboratories, priority 1986, dated 2002).

Columns and labels:
[1] = test system: antibodies raised against an immunogen having the structure shown in FIG. 29; experiment: Fluorescence polarization immunoassay cross-reactivity, tracer of FIG. 31; assay type: binding, sheep; details: Conc. Added 100 (ng/mL); tracer FIG. 31
Procedure: The antibodies of the present invention are prepared by eliciting a response in sheep to the immunogens described supra. The immunogen is administered to animals or to in vitro cultures of immunocompetent cells by a series of innoculations, in a manner well known to those skilled in the art.

[2] = test system: antibodies raised against an immunogen having the structure shown in FIG. 29; experiment: Fluorescence polarization immunoassay cross-reactivity in drug-free normal human urine, tracer of FIG. 30; assay type: binding, sheep; details: Conc. Added 100 (ng/mL); tracer FIG. 30
Procedure: The antibodies of the present invention are prepared by eliciting a response in sheep to the immunogens described supra. The immunogen is administered to animals or to in vitro cultures of immunocompetent cells by a series of innoculations, in a manner well known to those skilled in the art. It should be understood that although sheep were the preferred immune host to barbiturate immunogens in the experiments detailed herein, any in vivo or in vitro host capable of producing antibodies to the structures herein outlined may be employed.
For the most preferred assay of the present invention, all percentages expressed herein are weight/volume unless otherwise indicated. The tracer formulation presently preferred is 150 nanomolar tracer in: 0.1 molar phosphate buffer at pH 6.2; 5% sodium 5-sulfosalicylate; 0.1% sodium azide; and 0.01% bovine gamma-globulin. […]
If a manual assay is being performed, then the sample is mixed with the pretreatment solution in dilution buffer and a background reading is taken. […] After incubation, a fluorescence polarization reading is taken.
The net fluorescence polarization value of each calibrator, control or sample is determined and is printed on the output tape of an instrument such as the Abbott TDx® Analyzer. […] The concentration of each control or sample is read off the stored calibration curve and printed on the output tape. […]

In the case of `COc1ccc2cc([C@H](C)C(=O)O)ccc2c1` [Naproxen], the “% CR” value [1] is reported as 0.02%, the “Conc. Found” value [1] is reported as 20 ng/mL and the “% CR” value [2] is reported as 0.02%. For the same compound, the “Conc. Found” value [2] was 20 ng/mL.
